Results are given in words; binding and its absence hold for the method and conditions named. Binding seen in cells or lysates may run through a third protein. Some entries that bind do so weakly or less than the wild type.
Target: zinc finger protein 460 (human (endogenous in KG1a and U937)) (UniProt Q14592)
Test: co-IP; lysates of KG1a and U937 cells (IP-Western blot lysis buffer); anti-ZNF460 or anti-IgG on Protein A/G magnetic beads, incubated with the supernatant at 4°C for at least 16 h; detection by western blotting

The chains behind the UniProt entries cited, without tags or fusion partners.
UniProt Q14592: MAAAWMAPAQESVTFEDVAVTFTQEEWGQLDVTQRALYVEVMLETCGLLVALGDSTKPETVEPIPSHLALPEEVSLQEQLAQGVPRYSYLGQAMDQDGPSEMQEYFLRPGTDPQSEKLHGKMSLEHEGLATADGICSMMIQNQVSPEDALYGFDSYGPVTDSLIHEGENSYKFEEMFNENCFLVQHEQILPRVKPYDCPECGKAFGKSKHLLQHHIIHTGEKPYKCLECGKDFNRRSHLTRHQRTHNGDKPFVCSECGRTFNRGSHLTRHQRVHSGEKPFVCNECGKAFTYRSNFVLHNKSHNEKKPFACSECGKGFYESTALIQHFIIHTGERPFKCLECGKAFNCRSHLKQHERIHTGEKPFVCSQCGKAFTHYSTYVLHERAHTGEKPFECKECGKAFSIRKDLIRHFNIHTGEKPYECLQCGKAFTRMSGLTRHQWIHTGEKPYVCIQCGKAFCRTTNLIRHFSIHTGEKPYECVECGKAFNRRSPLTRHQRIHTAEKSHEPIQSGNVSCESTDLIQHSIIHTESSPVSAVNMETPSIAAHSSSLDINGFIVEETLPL
UniProt Q86VX2: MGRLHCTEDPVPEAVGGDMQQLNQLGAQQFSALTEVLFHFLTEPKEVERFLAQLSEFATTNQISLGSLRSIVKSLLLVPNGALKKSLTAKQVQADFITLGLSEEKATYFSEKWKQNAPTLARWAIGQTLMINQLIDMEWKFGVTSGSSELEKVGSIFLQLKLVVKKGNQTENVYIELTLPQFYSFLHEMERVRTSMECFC

**Q.** “COMM domain containing 7 (from UniProt Q86VX2 1-200)” was tested. Which binding did it give?
**A.** Its binding is “binds”.
